From PMC4045890
No constants are given. Whether binding was seen depends on the method and setting. In cells and extracts the contact can be indirect. Some binding calls cover weakened binding; strength is not graded here. Where a sequence is shown, tags or fusion partners need not be part of it.

T1: TAP-tagged Fep1 (S. pombe) (UniProt Q10134)
T1 sequence: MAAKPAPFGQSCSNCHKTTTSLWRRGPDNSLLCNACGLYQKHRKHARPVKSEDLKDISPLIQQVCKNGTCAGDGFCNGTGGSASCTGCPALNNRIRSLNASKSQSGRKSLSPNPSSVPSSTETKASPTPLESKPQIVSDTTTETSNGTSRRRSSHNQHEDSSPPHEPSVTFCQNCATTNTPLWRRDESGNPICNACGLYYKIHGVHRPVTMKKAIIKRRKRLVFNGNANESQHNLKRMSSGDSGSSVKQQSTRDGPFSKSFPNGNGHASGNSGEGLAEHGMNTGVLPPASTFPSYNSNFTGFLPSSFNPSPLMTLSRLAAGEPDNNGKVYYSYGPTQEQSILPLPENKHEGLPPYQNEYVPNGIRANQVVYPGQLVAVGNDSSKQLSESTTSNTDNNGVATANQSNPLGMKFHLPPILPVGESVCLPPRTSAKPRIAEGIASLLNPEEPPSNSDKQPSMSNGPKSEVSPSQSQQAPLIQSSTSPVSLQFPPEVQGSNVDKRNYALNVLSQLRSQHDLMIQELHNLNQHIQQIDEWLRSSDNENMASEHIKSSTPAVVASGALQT

T2: VN-tagged Fep1 (S. pombe) (UniProt Q10134)
T2 sequence: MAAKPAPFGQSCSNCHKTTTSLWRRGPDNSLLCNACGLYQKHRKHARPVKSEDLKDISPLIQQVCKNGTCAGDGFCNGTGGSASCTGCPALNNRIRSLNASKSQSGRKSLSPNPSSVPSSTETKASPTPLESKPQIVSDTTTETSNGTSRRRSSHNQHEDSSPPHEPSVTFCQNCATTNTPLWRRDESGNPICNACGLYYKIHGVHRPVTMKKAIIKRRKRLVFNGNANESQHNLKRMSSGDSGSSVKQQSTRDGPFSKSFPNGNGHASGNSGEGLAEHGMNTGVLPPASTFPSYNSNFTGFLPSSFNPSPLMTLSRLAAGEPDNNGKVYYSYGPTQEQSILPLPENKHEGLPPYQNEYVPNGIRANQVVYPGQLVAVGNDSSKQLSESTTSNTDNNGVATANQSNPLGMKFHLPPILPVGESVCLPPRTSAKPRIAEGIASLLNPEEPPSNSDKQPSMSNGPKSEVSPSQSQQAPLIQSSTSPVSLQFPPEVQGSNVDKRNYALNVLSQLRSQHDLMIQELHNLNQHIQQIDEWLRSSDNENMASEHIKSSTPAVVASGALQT


Experiments:
[1] = molecular target: T1, TAP-tagged Fep1 (S. pombe); assay: co-IP; TAP pull-down: whole-cell extracts (~2.7 mg protein) of S. pombe cells co-expressing the tagged proteins, treated with Dip (250 µM) or FeCl3 (100 µM) for 30 min; IgG-Sepharose 6 Fast-Flow beads hold TAP or TAP-Fep1, 18 h at 4°C; lysis buffer 10 mM Tris-HCl pH 7.9, 0.1% Triton X-100, 0.5 mM EDTA, 20% glycerol, 100 mM NaCl; immunoblot with anti-Myc, anti-GFP and anti-α-tubulin
[2] = molecular target: T2, VN-tagged Fep1 (S. pombe); assay: split reporter; BiFC with Venus fragments VN and VC in living S. pombe cells, iron-starved and iron-replete; fluorescence microscopy with Hoechst stain

Binder	binding [1]	binding [2]
GFP-tagged Grx4 (protein, UniProt O74790 1-244) MSVEITFVEQFQEILQNGKEQIILLNFYAPWAAPCKQMNQVFDQFAKDTKNAVFLKIEAEKFSDIAESFDVNAVPLFVLIHGAKVLARISGANPQKLKAAIDEYIQPLISQISSTNASVETQVNSVQTTNTTSNTSKAPNGLDSELNERLSTLTNAHNVMLFLKGTPSEPACGFSRKLVGLLREQNVQYGFFNILADDSVRQGLKVFSDWPTFPQLYIKGEFVGGLDIVSEMIENGELQEMLPN	binds	
Ctr4-VC (protein, UniProt O94722 1-289) MSFFSAAKQSLGNSLIKLGTSMAQNSQGPVDDSSLSQLENLLPPLQILTARAAMAAMNMSNDTSMSGMNMTNSTTPMSGMNMTNSTTSMSGMNMSNSTTSMSGMNMTNTTTTAKASSCKLSMYWNWYTIDACFITKHWHITSKHMFVGSIFGIIFMMMALELVRRGQREFDRWCVRRFSPASNSCCHSGAPVHSGPSMALRIFLHFLRSCFYLVQYIVAYIAMLLAMYYNGYVILFLFCGTFFGYFLFGADTISTKASSSVQTKTIVQVADEKHEHDSSQYSDTTPTTE		no binding
